Laboratory results: the supplement of paper PMC7661543
± gives the standard deviation of the averaged measurements. The effect of the compound repeats well; differences between the knockouts mostly do not.

Test system: SKBR3
Test: relative cell number vs DMSO control (72 h) (% of DMSO); higher = less growth inhibition (more cells)
Description: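 QMAP-Seq: a pool of 5 breast cancer cell lines (ZR-75-1, SKBR3, HCC-38, MDA-MB-231, BT-20), each carrying 12 doxycycline-inducible Cas9 sgRNA perturbations (11 knockouts plus non-targeting sgNT), was treated with compounds for 72 h at four 10-fold doses (10 nM-10 uM or 1 nM-1 uM range). Barcodes were amplified and sequenced, and cell number was interpolated from 293T spike-in standard curves. The result is expressed as % of the median of DMSO wells. Two biological replicates.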

[1] = sgRNA knockout: sgATF3, 1000 nM
[2] = sgRNA knockout: sgATF3, 10000 nM
[3] = sgRNA knockout: sgATF4, 1000 nM
[4] = sgRNA knockout: sgATF4, 10000 nM
[5] = sgRNA knockout: sgATF6, 1000 nM
[6] = sgRNA knockout: sgATF6, 10000 nM
[7] = sgRNA knockout: sgATG7, 1000 nM
[8] = sgRNA knockout: sgATG7, 10000 nM
[9] = sgRNA knockout: sgERN1, 1000 nM
[10] = sgRNA knockout: sgERN1, 10000 nM
[11] = sgRNA knockout: sgHSF1, 1000 nM
[12] = sgRNA knockout: sgHSF1, 10000 nM
[13] = sgRNA knockout: sgHSF2, 1000 nM
[14] = sgRNA knockout: sgHSF2, 10000 nM
[15] = sgRNA knockout: sgKEAP1, 100 nM
[16] = sgRNA knockout: sgKEAP1, 1000 nM
[17] = sgRNA knockout: sgKEAP1, 10000 nM
[18] = sgRNA knockout: sgNFE2L2, 10 nM
[19] = sgRNA knockout: sgNFE2L2, 100 nM
[20] = sgRNA knockout: sgNFE2L2, 1000 nM
[21] = sgRNA knockout: sgNFE2L2, 10000 nM
[22] = sgRNA knockout: sgSLC35F2, 10 nM
[23] = sgRNA knockout: sgSLC35F2, 100 nM
[24] = sgRNA knockout: sgSLC35F2, 1000 nM
[25] = sgRNA knockout: sgSLC35F2, 10000 nM
[26] = sgRNA knockout: sgXBP1, 1000 nM
[27] = sgRNA knockout: sgXBP1, 10000 nM

For C[C@@H](Nc1cc(F)cc(F)c1)c1cc(C(=O)N(C)C)cc2c(=O)cc(N3CCOCC3)oc12 [AZD8186], the relative cell number (sgRNA knockout: sgATF3, 10 nM) was 110 ± 43, the relative cell number (sgRNA knockout: sgATF3, 100 nM) was 115 ± 15 and the relative cell number [1] was 96.9 ± 3. It also gave a relative cell number [2] of 44.2 ± 9.3, a relative cell number (sgRNA knockout: sgATF4, 10 nM) of 96.9 ± 8.5 and a relative cell number (sgRNA knockout: sgATF4, 100 nM) of 103 ± 4.9. It also gave a relative cell number [3] of 78.9 ± 4.9, a relative cell number [4] of 51.5 ± 7.5 and a relative cell number (sgRNA knockout: sgATF6, 10 nM) of 90.6 ± 11. The relative cell number (sgRNA knockout: sgATF6, 100 nM) was 92.3 ± 1.9, the relative cell number [5] was 80.1 ± 3.4 and the relative cell number [6] was 54.2 ± 16. The relative cell number (sgRNA knockout: sgATG7, 10 nM) was 105 ± 12, the relative cell number (sgRNA knockout: sgATG7, 100 nM) was 125 ± 16 and the relative cell number [7] was 82.7 ± 2.6. For the same compound, the relative cell number [8] was 63.7 ± 10, the relative cell number (sgRNA knockout: sgERN1, 10 nM) was 127 ± 23 and the relative cell number (sgRNA knockout: sgERN1, 100 nM) was 143 ± 47. For the same compound, the relative cell number [9] was 83.7 ± 4.1, the relative cell number [10] was 56 ± 15 and the relative cell number (sgRNA knockout: sgHSF1, 10 nM) was 102 ± 2.8. The relative cell number (sgRNA knockout: sgHSF1, 100 nM) was 88.1 ± 28, the relative cell number [11] was 77.2 ± 11 and the relative cell number [12] was 43.6 ± 8.9. The relative cell number (sgRNA knockout: sgHSF2, 10 nM) was 97.3 ± 31, the relative cell number (sgRNA knockout: sgHSF2, 100 nM) was 101 ± 3 and the relative cell number [13] was 83.7 ± 25. It also gave a relative cell number [14] of 48.4 ± 7.5, a relative cell number (sgRNA knockout: sgKEAP1, 10 nM) of 107.7 ± 0.17 and a relative cell number [15] of 114 ± 8.9. For the same compound, the relative cell number [16] was 75.2 ± 24, the relative cell number [17] was 45.7 ± 12 and the relative cell number [18] was 80.1 ± 20. For the same compound, the relative cell number [19] was 108 ± 2, the relative cell number [20] was 81.1 ± 17 and the relative cell number [21] was 51.2 ± 18. The relative cell number [22] was 101 ± 25, the relative cell number [23] was 89.3 ± 22 and the relative cell number [24] was 77.9 ± 6.9. For the same compound, the relative cell number [25] was 42.3 ± 14, the relative cell number (sgRNA knockout: sgXBP1, 10 nM) was 106 ± 45 and the relative cell number (sgRNA knockout: sgXBP1, 100 nM) was 116 ± 4.8. The relative cell number [26] was 93.9 ± 26 and the relative cell number [27] was 62.5 ± 2.4.
Work on O=C(Cc1ccc(-c2ccc(OCCN3CCOCC3)cc2)cn1)NCc1ccccc1 [KX2391] yielded a relative cell number (sgRNA knockout: sgATF3, 10 nM) of 117 ± 13, a relative cell number (sgRNA knockout: sgATF3, 100 nM) of 17.12 ± 0.12 and a relative cell number [1] of 12.2 ± 3.2. For the same compound, the relative cell number [2] was 13.1 ± 0.96, the relative cell number (sgRNA knockout: sgATF4, 10 nM) was 132 ± 44 and the relative cell number (sgRNA knockout: sgATF4, 100 nM) was 11.6 ± 0.71. The relative cell number [3] was 11.4 ± 1.1, the relative cell number [4] was 11.6 ± 2.3 and the relative cell number (sgRNA knockout: sgATF6, 10 nM) was 118 ± 40. The relative cell number (sgRNA knockout: sgATF6, 100 nM) was 14.3 ± 2.4, the relative cell number [5] was 10.9 ± 0.58 and the relative cell number [6] was 10.9 ± 1.9. It also gave a relative cell number (sgRNA knockout: sgATG7, 10 nM) of 104 ± 14, a relative cell number (sgRNA knockout: sgATG7, 100 nM) of 16.6 ± 4.3 and a relative cell number [7] of 9.27 ± 3.4. The relative cell number [8] was 12.9 ± 3.5, the relative cell number (sgRNA knockout: sgERN1, 10 nM) was 133 ± 48 and the relative cell number (sgRNA knockout: sgERN1, 100 nM) was 13.4 ± 4.3. It also gave a relative cell number [9] of 8.22 ± 2.9, a relative cell number [10] of 13.7 ± 1.4 and a relative cell number (sgRNA knockout: sgHSF1, 10 nM) of 123 ± 34. The relative cell number (sgRNA knockout: sgHSF1, 100 nM) was 14.3 ± 1.2, the relative cell number [11] was 5.7 ± 1.9 and the relative cell number [12] was 9.37 ± 5.1. It also gave a relative cell number (sgRNA knockout: sgHSF2, 10 nM) of 115 ± 18, a relative cell number (sgRNA knockout: sgHSF2, 100 nM) of 15.5 ± 0.3 and a relative cell number [13] of 9.01 ± 1.2. It also gave a relative cell number [14] of 15.7 ± 1.2, a relative cell number (sgRNA knockout: sgKEAP1, 10 nM) of 128 ± 32 and a relative cell number [15] of 11.2 ± 0.96. For the same compound, the relative cell number [16] was 10.2 ± 1.1, the relative cell number [17] was 7.9 ± 1 and the relative cell number [18] was 127 ± 72. It also gave a relative cell number [19] of 16.9 ± 2, a relative cell number [20] of 10.3 ± 1.1 and a relative cell number [21] of 14 ± 6.6. For the same compound, the relative cell number [22] was 137.4 ± 0.16, the relative cell number [23] was 12.2 ± 6.3 and the relative cell number [24] was 8.29 ± 1.3. It also gave a relative cell number [25] of 16.1 ± 0.98, a relative cell number (sgRNA knockout: sgXBP1, 10 nM) of 109 ± 26 and a relative cell number (sgRNA knockout: sgXBP1, 100 nM) of 18.4 ± 8.5. It also gave a relative cell number [26] of 8.6 ± 1 and a relative cell number [27] of 8.86 ± 1.3.
Compound CN(C)CC[C@H](CSc1ccccc1)Nc1ccc(S(=O)(=O)NC(=O)c2ccc(N3CCN(Cc4ccccc4-c4ccc(Cl)cc4)CC3)cc2)cc1[N+](=O)[O-] [ABT737] has a relative cell number (sgRNA knockout: sgATF3, 10 nM) of 100 ± 9.1, a relative cell number (sgRNA knockout: sgATF3, 100 nM) of 101 ± 33 and a relative cell number [1] of 113 ± 26. The relative cell number [2] was 79.2 ± 14, the relative cell number (sgRNA knockout: sgATF4, 10 nM) was 116 ± 21 and the relative cell number (sgRNA knockout: sgATF4, 100 nM) was 81 ± 0.95. It also gave a relative cell number [3] of 101 ± 11, a relative cell number [4] of 78 ± 3.6 and a relative cell number (sgRNA knockout: sgATF6, 10 nM) of 114 ± 19. It also gave a relative cell number (sgRNA knockout: sgATF6, 100 nM) of 79.3 ± 1.9, a relative cell number [5] of 93.689 ± 0.066 and a relative cell number [6] of 66.5 ± 7.7. For the same compound, the relative cell number (sgRNA knockout: sgATG7, 10 nM) was 109 ± 11, the relative cell number (sgRNA knockout: sgATG7, 100 nM) was 112 ± 17 and the relative cell number [7] was 92.5 ± 15. The relative cell number [8] was 80.1 ± 9, the relative cell number (sgRNA knockout: sgERN1, 10 nM) was 109 ± 42 and the relative cell number (sgRNA knockout: sgERN1, 100 nM) was 108 ± 1.9. The relative cell number [9] was 99.6 ± 2.1, the relative cell number [10] was 103 ± 7.9 and the relative cell number (sgRNA knockout: sgHSF1, 10 nM) was 83.8 ± 6.7. The relative cell number (sgRNA knockout: sgHSF1, 100 nM) was 97.6 ± 11, the relative cell number [11] was 78.5 ± 7.4 and the relative cell number [12] was 83 ± 12. It also gave a relative cell number (sgRNA knockout: sgHSF2, 10 nM) of 109 ± 8.1, a relative cell number (sgRNA knockout: sgHSF2, 100 nM) of 106 ± 3.3 and a relative cell number [13] of 89.3 ± 16. It also gave a relative cell number [14] of 81.5 ± 18, a relative cell number (sgRNA knockout: sgKEAP1, 10 nM) of 104 ± 7.1 and a relative cell number [15] of 80.9 ± 19. The relative cell number [16] was 87.7 ± 20, the relative cell number [17] was 75.9 ± 6.3 and the relative cell number [18] was 98.5 ± 15. The relative cell number [19] was 106.3 ± 0.39, the relative cell number [20] was 78.7 ± 16 and the relative cell number [21] was 85.4 ± 0.57. The relative cell number [22] was 97.3 ± 14, the relative cell number [23] was 88.2 ± 2.3 and the relative cell number [24] was 90.6 ± 23. The relative cell number [25] was 79.4 ± 26, the relative cell number (sgRNA knockout: sgXBP1, 10 nM) was 91.7 ± 23 and the relative cell number (sgRNA knockout: sgXBP1, 100 nM) was 114 ± 34. It also gave a relative cell number [26] of 120 ± 8.5 and a relative cell number [27] of 87.4 ± 22.
